This note sets out measurements from PMC2265061, “Compound Cytotoxicity Profiling Using Quantitative High-Throughput Screening” (Environmental Health Perspectives, 2007).

By IC50 is commonly meant the midpoint of a concentration-inhibition curve. A low value points to inhibition by little substance.

Assay in all cases: cells
The test system of assay [1] is BJ. Particulars: Homo sapiens, 40 h. How it is done: (§1) We measured cell viability using a luciferase-coupled ATP quantitation assay (CellTiter-Glo; Promega, Madison, WI). In this assay, luminescent signal is proportional to amount of ATP and thus to the number of metabolically competent cells; cell injury and death result in a dramatic decrease in intracellular ATP levels ([Crouch et al. 1993]). Cells were dispensed at 1,000–2,000 cells/5 μL/well in tissue-culture treated 1,536-well white/solid bottom assay plates (Greiner Bio-One North America, Monroe, NC) using a Flying Reagent Dispenser (Aurora Discovery, Carlsbad, CA). All but Jurkat cells (which are grown in suspension) were incubated at 37°C for 5–6 hr to allow for cell attachment, followed by addition of compounds via pin tool (Kalypsys, San Diego, CA). […] At the end of the incubation period, 5 μL of CellTiter-Glo reagent was added, plates were incubated at room temperature for 30 min, and the luminescence intensity of each well was determined using a ViewLux plate reader (PerkinElmer, Shelton, CT).
(§2) Compound formatting and qHTS were performed as described previously ([Inglese et al. 2006]).
(§3) Analysis of compound concentration–response data was performed as previously described ([Inglese et al. 2006]). […] Concentration–response titration points for each compound were fitted to the Hill equation ([Hill 1910]), yielding concentrations of half-maximal inhibition (IC50) and maximal response (efficacy) values. […] Class 1 or 2 compounds were further divided into subclasses based on efficacy and quality of fit (R^2). Compounds with R^2 > 0.9 and high (> 80%) efficacy were designated as subclass a, and compounds with R^2 > 0.9 and low efficacies (30–80%) as subclass b. […] Compound activity correlations between different assays or experiments were assessed by calculating the Pearson correlation coefficient. Hierarchical clustering of compound activity patterns across different assays was performed within Spotfire DecisionSite 8.2 (Spotfire Inc., Cambridge, MA) using the correlation of log IC50 values as the similarity metric.

The test system of assay [2] is H-4-II-E. Particulars: Rattus norvegicus, H4IIE, 40 h. How it is done:
as §1, §2, §3

In assay [3] the test system is HUV-EC-C. Particulars: Homo sapiens, 40 h. How it is done: as §1, §2, §3
For assay [4], the system named is Jurkat. Particulars: mean ± SD. How it is done: as §1, §2, §3
For assay [5], the system named is MRC-5. Particulars: Homo sapiens, MRC5, 40 h. How it is done: as §1, §2, §3
For assay [6], the system named is Mesangial. Particulars: Homo sapiens, 40 h. How it is done: as §1, §2, §3
Assay [7] concerns N2a. Particulars: Mus musculus, 40 h. How it is done:
as §1, §2, §3

The test system of assay [8] is SH-SY5Y. Particulars: Homo sapiens, 40 h. How it is done: as §1, §2, §3
In assay [9] the test system is SK-N-SH. Particulars: Homo sapiens, 40 h. How it is done: as §1, §2, §3
Assay [10] concerns HEK293. In kind it is cell-based. Particulars: Homo sapiens; HEK293, 40 hr, mean ± SD. How it is done:
as §1, §2
(§4) Analysis of compound concentration–response data was performed as previously described ([Inglese et al. 2006]). […] Compound activity correlations between different assays or experiments were assessed by calculating the Pearson correlation coefficient. […]

Assay [11] relates to NIH 3T3. The format is cell-based. Particulars: Mus musculus, NIH3T3; NIH 3T3, 40 hr, mean ± SD. How it is done: as §1, §2, §4

For the compound `CC/C(=C(\c1ccccc1)c1ccc(OCCN(C)C)cc1)c1ccccc1` [tamoxifen], the IC50 in assay [1] turned out to be 79 ± 10 µM; in assay [2], 63 ± 15 µM; in [3], 46 ± 5 µM; in [4] (40 hr), 8 ± 1 µM; in assay [4] (Homo sapiens, 40 h), 8.3 µM; in assay [5] it was 68 ± 17 µM. Also, the IC50 in [6] was 79 ± 10 µM; in assay [7] it was 72 ± 13 µM; in assay [8] it was 65 ± 15 µM; in assay [9] it was 57 ± 13 µM; in [10], 79 ± 10 µM; in assay [11], 79 ± 4 µM.
